# Values from PubChem BioAssay AID1259308 (NCATS, 2017)
# Screen: 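Knock-downs that increase output of a recombinant reporter protein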 (primary screen)
# System: human HEK293 embryonic kidney cells stably expressing firefly luciferase (HEK-CMV-Luc2-Hygro)
# Reagent: single siRNA against human genes, 0.8 pmol siRNA per well
# Time to read-out: 72 h
# Measured: 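Luciferase light (ONE-Glo) measured on one replicate plate set and viability (CellTiter-Glo) on the other, scaled to a negative control siRNA, with robust z-scores and luciferase per cell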
# Reading the numbers: total luciferase, z-score and total luciferase, % of control: higher = more reporter protein produced; luciferase per cell, z-score: higher = more reporter output per viable cell; viable cells, % of control: higher = more viable cells
# Call rule: 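Active when the median/MAD z-score for overall luciferase is greater than 3; a gene was taken forward for validation with new siRNAs if at least two of its three siRNAs passed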
# Meaning of the calls: active = raised luciferase; inactive = no rise
# The deposit covers about 59,000 reagents; shown is a part drawn at random. About 1,510 of them (2.6%) were called active. 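Calls use total luciferase alone and ignore viability, so some active siRNAs may act by altering cell number.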 Entries without a mark were called inactive.
gene,PubChem SID,"total luciferase, z-score","total luciferase, % of control","luciferase per cell, z-score","viable cells, % of control"
PLSCR5 (phospholipid scramblase family member 5),SID160766116,2.41,130,1.78,90.9
PLSCR5 (phospholipid scramblase family member 5),SID160766117,-0.0413,81.1,-0.297,97.9
PLSCR5 (phospholipid scramblase family member 5),SID160766118,1.39,110,0.898,96.7
FANCG (FA complementation group G),SID160763865,0.165,85.2,0.217,89.9
FANCG (FA complementation group G),SID160763876,-1.48,52.5,-0.277,63.1
FANCG (FA complementation group G),SID160763888,-0.513,71.7,0.751,65.7
FGF4 (fibroblast growth factor 4),SID160765030,-0.996,62.1,-1.17,94.3
FGF4 (fibroblast growth factor 4),SID160765041,1.49,112,1.17,91.6
FGF4 (fibroblast growth factor 4),SID160765051,1.56,113,1.14,93.4
MCIDAS,SID160764867,0.351,88.9,1.57,65.7
MCIDAS,SID160764868,-0.0706,80.5,-0.0917,92.1
MCIDAS,SID160764869,0.378,89.4,0.572,85.9
OR2A14 (olfactory receptor family 2 subfamily A member 14),SID160757440,0.975,101,0.607,96.5
OR2A14 (olfactory receptor family 2 subfamily A member 14),SID160757441,0.675,95.3,1.43,73.2
OR2A14 (olfactory receptor family 2 subfamily A member 14),SID160757442,-0.384,74.2,-0.0218,83.4
PGD (phosphogluconate dehydrogenase),SID160714203,-0.686,68.2,-0.504,87.1
PGD (phosphogluconate dehydrogenase),SID160714204,-1.05,61.1,-1.32,96.7
PGD (phosphogluconate dehydrogenase),SID160731410,-0.612,69.7,-0.35,85.4
MYCBP2 (MYC binding protein 2),SID160735393,1,102,0.904,89.6
MYCBP2 (MYC binding protein 2),SID160735394,0.246,86.8,0.0515,95.7
MYCBP2 (MYC binding protein 2),SID160735395,-0.164,78.6,-0.532,101
"GORAB (golgin, RAB6 interacting)",SID160754264,-0.994,62.1,-0.792,85.5
"GORAB (golgin, RAB6 interacting)",SID160754265,-0.98,62.4,0.528,60.7
"GORAB (golgin, RAB6 interacting)",SID160754266,0.0934,83.7,0.168,89.5
PRICKLE1 (prickle planar cell polarity protein 1),SID160758107,0.239,86.6,0.123,93.7
PRICKLE1 (prickle planar cell polarity protein 1),SID160758108,-0.288,76.2,-0.338,93
PRICKLE1 (prickle planar cell polarity protein 1),SID160758109,0.511,92,1.01,78.9
SLC22A11,SID160744556,-2.32,35.8,-2.56,78.5
SLC22A11,SID160744557,-0.702,67.9,-0.58,88.4
SLC22A11,SID160744558,0.688,95.6,0.452,94.8
ZZZ3 (zinc finger ZZ-type containing 3),SID160737441,-1.74,47.3,-1.76,84.1
ZZZ3 (zinc finger ZZ-type containing 3),SID160737442,1.35,109,1.68,78.1
ZZZ3 (zinc finger ZZ-type containing 3),SID160737443,0.386,89.6,-0.00163,100
RMI1 (RecQ mediated genome instability 1),SID160749950,-1.61,49.9,-1.77,88.9
RMI1 (RecQ mediated genome instability 1),SID160749951,-0.216,77.6,-0.0917,88.8
RMI1 (RecQ mediated genome instability 1),SID160749952,-1.97,42.7,-2.77,99.1
SIRPA (signal regulatory protein alpha),SID160730634,-0.977,62.5,-0.836,87
SIRPA (signal regulatory protein alpha),SID160757941,0.0457,82.8,0.447,82.2
SIRPA (signal regulatory protein alpha),SID160757942,-1.34,55.2,-1.11,82.6
MAP3K11 (mitogen-activated protein kinase kinase kinase 11),SID160777291,0.85,98.8,0.376,100
MAP3K11 (mitogen-activated protein kinase kinase kinase 11),SID160777292,0.803,97.9,0.815,88.2
MAP3K11 (mitogen-activated protein kinase kinase kinase 11),SID160777293,-2.71,28.1,-2.86,66.6
MED23 (mediator complex subunit 23),SID160722205,-1.69,48.2,0.991,41.5
MED23 (mediator complex subunit 23),SID160722206,-1.18,58.5,0.944,51
MED23 (mediator complex subunit 23),SID160722208,-1.9,44.2,-0.123,51
FEZF1 (FEZ family zinc finger 1),SID160766213,1.68,115,1.18,94.5
FEZF1 (FEZ family zinc finger 1),SID160766214,1.6,114,0.38,115
FEZF1 (FEZ family zinc finger 1),SID160766215,1.59,114,0.793,103
"WASH6P (WASP family homolog 6, pseudogene)",SID160733169,0.86,99,0.748,90.9
"WASH6P (WASP family homolog 6, pseudogene)",SID160765494,0.163,85.1,-0.0628,96.7
"WASH6P (WASP family homolog 6, pseudogene)",SID160765495,0.675,95.3,1.27,76.3
LOXL1 (lysyl oxidase like 1),SID160776697,0.935,100,0.547,97.2
LOXL1 (lysyl oxidase like 1),SID160776698,1.57,113,3.01,57.3
LOXL1 (lysyl oxidase like 1),SID160776699,-1.32,55.6,-1.02,81.2
DDX21 (DExD-box helicase 21),SID160721681,-1.32,55.7,-1.83,101
DDX21 (DExD-box helicase 21),SID160721682,1.8,118,1.89,79.8
DDX21 (DExD-box helicase 21),SID160721683,-0.924,63.5,-0.542,81.9

Taken from above.
SLC22A11 [SID160744558], total luciferase, % of control: 95.6
Entry of FANCG (FA complementation group G) [SID160763888] under “total luciferase, z-score”: -0.513
For “viable cells, % of control”, MAP3K11 (mitogen-activated protein kinase kinase kinase 11) [SID160777291] is entered as 100
Result for WASH6P (WASP family homolog 6, pseudogene) [SID160733169] in “luciferase per cell, z-score”: 0.748
